These results are taken from PubChem BioAssay AID1919003 (Molecular Pharmacology Branch, DTP, NCI, 2023).

The structures appear in SMILES notation. Where “and” joins values, the source holds several entries; their conditions need not be identical. Equal values may be shown once. The source gives many values for each of these; only a part stands here.

For the assay, the system named is 786-0 complex spheroids with HUVEC/MSC, growth % test/control. Kind of assay: Anticancer human tumor 786-0 cell line growth inhibition [AhR].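 Further: compound exposure lasted seven days before the read-out.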 As to conditions: stronger effect = lower value. From the text: Multicellular complex tumor spheroid response to aryl hydrocarbon receptor antagonists in combination with a variety of drugs and investigational agents in selected tumor cell lines
The current study was undertaken to assess response to aryl hydrocarbon receptor antagonists in combination with standard-of-care drugs and investigational agents in solid tumor complex spheroid models. Complex spheroids include a stromal component modeled by human endothelial cells (HUVEC) and fibroblasts modeled by human mesenchymal stem cells (MSCs). The concentration ranges selected for each drug and investigational agent were based upon clinically achievable concentrations if the clinical Cmax of the agent was known.
Compounds. The drugs and investigational agents: BAY 2416964 (NSC825713), GNF351 (NSC835774), CH-223191 (NSC835775), CPI-455 (NSC825282), aza-TdCyd (NSC777586), decitabine (NSC127716), belinostat (NSC758774), entinostat (NSC756642), pevonedistat (NSC761192), tazemetostat (NSC777109), talazoparib (NSC765396), olaparib (NSC753686), selinexor (NSC780203), nedisertib (M3814, NSC802822), bortezomib (NSC756655), venetoclax (NSC766270), doxorubicin (NSC123127), elimusertib (BAY189344, NSC800525), ceralasertib (AZD6738, NSC777638), TAK-243 (NSC785004), alisertib (NSC759677), etoposide (NSC141540), topotecan (NSC609699), eribulin (NSC707389), gemcitabine (NSC613327), carboplatin (NSC241240), cisplatin (NSC119875), and SN-38 (NSC673596) were obtained from the National Cancer Institute (NCI) Developmental Therapeutics Program Chemical Repository (32). The FDA-approved anticancer drug set is available from the Developmental Therapeutics Program at https://dtp.cancer.gov/organization/dscb/obtaining/available plates.htm. […] The stock solutions were prepared in dimethyl sulfoxide (DMSO, Sigma-Aldrich, St. Louis, MO, cat. D2650), except for the platinum compounds which were prepared in saline (Quality Biological, Gaithersburg, MD, cat. 114-055-101), at 800-fold the tested concentration and stored at -70 degrees C prior to their use. All drugs and investigational agents were tested over a range starting from a high concentration at or near the clinical Cmax and decreasing in half-log increments. If the clinical Cmax for an agent had not been determined, the highest concentration tested was 10 microM (Table 1).
Cell Culture. All cells were maintained in an incubator at 37 degrees C and 5% CO2 with 95% humidity. The PDC lines were cultured according to standard operating procedures established by the NCI PDMR (https://pdmr.cancer.gov). Briefly, all PDCs were thawed and cultured in Matrigel-coated flasks prepared with a working solution of 1X Ham's F-12 nutrient mix, without supplementation (Invitrogen, Waltham, MA, cat. 11765054), 100 U/mL penicillin-streptomycin (Invitrogen, cat. 15140122), and 2.5% Matrigel (Corning Inc., Corning, NY, cat. 354248) for the first three passages. All PDCs were cultured in complete DMEM/F-12 media containing advanced DMEM/F-12 (Invitrogen, cat. 12634028), 4.9% defined fetal bovine serum, heat inactivated (HyClone Laboratories Inc., Logan, UT, cat. SH30070.03HI), 389 ng/mL hydrocortisone (Sigma-Aldrich, cat. H4001), 9.7 ng/mL human EGF recombinant protein (Invitrogen, cat. PHG0313), 23.4 microg/mL adenine (Sigma-Aldrich, cat. A2786), 97.3 U/mL penicillin-streptomycin (Invitrogen, cat. 15140122), 1.9 mM L-glutamine (Invitrogen, cat. 25030081), and 9.7 microM Y-27632 dihydrochloride (Tocris Bioscience, Bristol, United Kingdom, cat. 1254). The PDCs were cultured in complete DMEM/F12 media without 10 microM Y-27632 dihydrochloride for at least two passages prior to the screen. The established cell lines NCI-H1341 and […] were cultured in DMEM/F-12, HEPES (Invitrogen, cat. 11330032), 5% defined fetal bovine serum (HyClone Laboratories Inc., cat. SH30070.03), ITS premix universal culture supplement [insulin (5 microg/mL), transferrin (5 microg/mL), and selenious acid (5 ng/mL)] […]

In general, viability, T/C refers to the result in the treated group divided by that in the control group, in per cent.

Turning to `Cc1cncc(-c2nc(NCCc3c[nH]c4ccccc34)c3ncn(C(C)C)c3n2)c1`, the viability, T/C reads like this: (compound 0.1 µM) 112%; (compound 0.316 µM) 112% (2×) and 105% (2×); (compound 1 µM) 118% and 109% (2×) and 95.9%; (compound 10 µM) 9.97% [middle of 5 runs].
In the case of `CC(CO)NC(=O)c1cc(-c2ccc(Cl)cc2)nn(-c2cnn(C)c2)c1=O` (stereo not drawn), the viability, T/C is, setting by setting: (compound 0.1 µM) 97.7% and 92.3% and 112%; (compound 0.316 µM) 91% and 97% and 98.7%; (compound 1 µM) 98.8% and 96.1% and 107%; (compound 3.16 µM) 97.8% and 101% and 95.3%.
On to `Cc1ccccc1N=Nc1ccc(NC(=O)c2ccnn2C)c(C)c1`, for which the viability, T/C (compound 0.1 µM) was 92.6% and 89.9%; the viability, T/C (compound 0.316 µM) is 96.3% [middle of 5 runs]; the viability, T/C (compound 1 µM) is 92% [middle of 5 runs]; the viability, T/C (compound 3.16 µM) is 91% [middle of 4 runs]; the viability, T/C (compound 10 µM) is 86% and 94.9% and 84.6%.
